Data taken from the M2OR odorant receptor database.
Some of the results follow. The calls were merged from several studies; some rest on single wells.

Chains of the proteins cited; added tags and fusions are not shown. A line that says so, or that is headed by a name, gives the form on record, which may keep a tag or linker.
O4A15, as listed by the source: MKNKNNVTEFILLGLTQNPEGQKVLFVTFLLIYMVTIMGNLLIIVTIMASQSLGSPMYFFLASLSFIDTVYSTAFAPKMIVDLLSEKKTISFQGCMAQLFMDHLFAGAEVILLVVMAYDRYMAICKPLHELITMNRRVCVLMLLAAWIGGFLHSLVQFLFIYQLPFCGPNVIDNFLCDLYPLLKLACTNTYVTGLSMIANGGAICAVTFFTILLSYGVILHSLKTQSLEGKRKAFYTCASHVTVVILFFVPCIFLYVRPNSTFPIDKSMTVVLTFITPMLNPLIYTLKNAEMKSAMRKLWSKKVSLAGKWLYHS

Tests used:
Conditions in all cases: stereoisomer not certain
O13J1 = tested on: T1, O13J1
T1 sequence (whole entry): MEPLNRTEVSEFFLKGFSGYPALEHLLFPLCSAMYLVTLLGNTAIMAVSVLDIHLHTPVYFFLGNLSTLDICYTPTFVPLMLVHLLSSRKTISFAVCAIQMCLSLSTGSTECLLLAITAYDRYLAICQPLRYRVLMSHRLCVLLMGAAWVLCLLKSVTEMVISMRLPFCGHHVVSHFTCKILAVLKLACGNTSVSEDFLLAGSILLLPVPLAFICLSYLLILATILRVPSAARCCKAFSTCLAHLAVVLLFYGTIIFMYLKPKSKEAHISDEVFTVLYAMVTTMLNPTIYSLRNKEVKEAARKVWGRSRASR
Method in brief: (§1)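 Values were gathered from published papers (main text and supplementary material), with extra details requested from the original authors when needed, and checked for typos and inconsistencies. Each receptor–molecule pair is called responsive (active) if the original authors judged the measured signal statistically different from baseline, and non-responsive (inactive) otherwise. Assay methods varied by source, often transient mammalian cell-line luciferase assays. Recorded details include cell line, G-protein, co-transfected protein and tags.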

O14A2 = tested on: T2, O14A2
T2 sequence (whole entry): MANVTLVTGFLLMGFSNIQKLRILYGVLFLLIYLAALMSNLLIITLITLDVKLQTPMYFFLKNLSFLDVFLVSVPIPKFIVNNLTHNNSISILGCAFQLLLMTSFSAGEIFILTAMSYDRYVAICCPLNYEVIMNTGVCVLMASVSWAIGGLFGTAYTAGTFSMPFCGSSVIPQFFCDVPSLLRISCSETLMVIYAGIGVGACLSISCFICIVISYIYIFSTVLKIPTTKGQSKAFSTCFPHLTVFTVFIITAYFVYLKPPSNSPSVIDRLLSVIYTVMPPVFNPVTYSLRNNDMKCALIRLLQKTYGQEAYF
Method in brief: as §1

O14AG = tested on: T3, O14AG
T3 sequence (whole entry): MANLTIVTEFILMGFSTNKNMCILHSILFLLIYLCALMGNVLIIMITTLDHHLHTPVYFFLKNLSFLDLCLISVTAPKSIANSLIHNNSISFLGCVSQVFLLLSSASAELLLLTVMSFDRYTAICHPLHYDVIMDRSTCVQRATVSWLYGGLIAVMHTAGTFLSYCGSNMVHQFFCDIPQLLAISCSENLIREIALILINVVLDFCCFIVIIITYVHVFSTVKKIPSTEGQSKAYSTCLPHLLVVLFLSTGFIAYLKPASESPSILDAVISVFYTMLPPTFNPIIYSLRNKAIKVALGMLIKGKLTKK
Method in brief: as §1

O14CZ = tested on: T4, O14CZ
T4 sequence (whole entry): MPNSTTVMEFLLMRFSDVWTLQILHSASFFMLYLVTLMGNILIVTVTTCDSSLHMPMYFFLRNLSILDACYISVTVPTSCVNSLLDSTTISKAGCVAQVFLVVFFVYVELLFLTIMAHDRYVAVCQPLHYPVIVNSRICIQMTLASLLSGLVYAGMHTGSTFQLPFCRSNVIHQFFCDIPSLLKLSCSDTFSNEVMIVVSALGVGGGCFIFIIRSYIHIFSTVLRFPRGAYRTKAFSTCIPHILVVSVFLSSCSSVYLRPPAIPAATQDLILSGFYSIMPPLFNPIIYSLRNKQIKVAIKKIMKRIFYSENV
Method in brief: as §1

O14I1 = tested on: T5, O14I1
T5 sequence (whole entry): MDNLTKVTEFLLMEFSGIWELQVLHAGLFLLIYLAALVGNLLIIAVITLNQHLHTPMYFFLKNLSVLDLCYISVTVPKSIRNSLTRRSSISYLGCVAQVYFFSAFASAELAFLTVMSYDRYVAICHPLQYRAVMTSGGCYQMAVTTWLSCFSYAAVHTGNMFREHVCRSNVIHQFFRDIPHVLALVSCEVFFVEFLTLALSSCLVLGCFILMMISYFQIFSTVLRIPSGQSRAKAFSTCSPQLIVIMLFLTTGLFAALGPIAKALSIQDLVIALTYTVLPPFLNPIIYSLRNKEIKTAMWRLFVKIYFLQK
Method in brief: as §1

O14J1 = tested on: T6, O14J1
T6 sequence (whole entry): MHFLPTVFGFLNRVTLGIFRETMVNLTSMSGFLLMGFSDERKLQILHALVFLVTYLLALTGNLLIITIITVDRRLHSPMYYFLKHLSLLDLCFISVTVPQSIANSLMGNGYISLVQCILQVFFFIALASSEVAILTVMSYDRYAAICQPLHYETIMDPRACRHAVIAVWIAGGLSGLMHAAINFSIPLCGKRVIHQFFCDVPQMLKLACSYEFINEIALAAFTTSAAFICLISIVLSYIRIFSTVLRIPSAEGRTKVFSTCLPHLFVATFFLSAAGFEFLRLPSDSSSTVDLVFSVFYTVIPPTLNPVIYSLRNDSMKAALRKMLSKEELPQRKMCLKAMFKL
Method in brief: as §1

O14K1 = tested on: T7, O14K1
T7 sequence (whole entry): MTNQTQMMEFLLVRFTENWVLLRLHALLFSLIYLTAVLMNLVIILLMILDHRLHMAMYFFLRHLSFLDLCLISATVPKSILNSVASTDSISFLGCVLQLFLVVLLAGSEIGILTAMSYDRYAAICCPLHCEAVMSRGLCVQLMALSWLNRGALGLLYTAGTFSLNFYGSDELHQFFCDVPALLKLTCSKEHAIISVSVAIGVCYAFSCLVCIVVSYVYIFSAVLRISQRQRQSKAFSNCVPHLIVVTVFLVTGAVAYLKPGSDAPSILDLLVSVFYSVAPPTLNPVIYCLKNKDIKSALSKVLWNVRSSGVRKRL
Method in brief: as §1

O14L1 = tested on: T8, O14L1
T8 sequence (whole entry): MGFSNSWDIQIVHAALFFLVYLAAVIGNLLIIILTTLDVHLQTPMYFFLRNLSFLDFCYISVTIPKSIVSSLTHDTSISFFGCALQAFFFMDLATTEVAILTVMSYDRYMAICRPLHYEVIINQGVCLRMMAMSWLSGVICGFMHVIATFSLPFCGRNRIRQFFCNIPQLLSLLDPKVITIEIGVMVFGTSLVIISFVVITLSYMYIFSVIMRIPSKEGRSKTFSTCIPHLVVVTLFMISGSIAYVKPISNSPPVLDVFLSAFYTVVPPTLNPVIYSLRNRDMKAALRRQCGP
Method in brief: as §1

O2A14 = tested on: T9, O2A14
T9 sequence (whole entry): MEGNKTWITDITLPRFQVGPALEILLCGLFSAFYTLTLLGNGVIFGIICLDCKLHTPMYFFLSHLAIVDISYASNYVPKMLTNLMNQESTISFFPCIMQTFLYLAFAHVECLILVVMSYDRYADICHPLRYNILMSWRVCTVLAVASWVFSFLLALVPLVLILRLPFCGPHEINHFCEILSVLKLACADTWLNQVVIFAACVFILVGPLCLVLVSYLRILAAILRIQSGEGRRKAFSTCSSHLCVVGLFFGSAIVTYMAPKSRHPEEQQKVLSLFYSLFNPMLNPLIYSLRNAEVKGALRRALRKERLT
Method in brief: as §1

O2AE1 = tested on: T10, O2AE1
T10 sequence (whole entry): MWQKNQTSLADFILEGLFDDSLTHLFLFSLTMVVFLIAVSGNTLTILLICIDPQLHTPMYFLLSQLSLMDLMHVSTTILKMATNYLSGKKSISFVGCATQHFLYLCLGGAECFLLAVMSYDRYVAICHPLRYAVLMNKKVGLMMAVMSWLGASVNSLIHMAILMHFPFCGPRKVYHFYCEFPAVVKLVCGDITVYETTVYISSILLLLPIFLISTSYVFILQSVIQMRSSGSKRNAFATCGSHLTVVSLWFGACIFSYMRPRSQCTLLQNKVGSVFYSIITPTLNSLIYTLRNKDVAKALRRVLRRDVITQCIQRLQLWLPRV
Method in brief: as §1

O2AG2 = tested on: T11, O2AG2
T11 sequence (whole entry): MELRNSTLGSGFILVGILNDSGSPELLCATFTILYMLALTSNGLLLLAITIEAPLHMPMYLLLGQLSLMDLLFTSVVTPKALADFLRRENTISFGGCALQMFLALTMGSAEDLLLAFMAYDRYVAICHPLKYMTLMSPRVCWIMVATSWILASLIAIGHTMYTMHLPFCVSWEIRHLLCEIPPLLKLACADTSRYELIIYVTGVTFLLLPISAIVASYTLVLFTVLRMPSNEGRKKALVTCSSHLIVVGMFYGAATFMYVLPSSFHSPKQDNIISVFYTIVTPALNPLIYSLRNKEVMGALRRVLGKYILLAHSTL
Method in brief: as §1

O2AJ1 = tested on: T12, O2AJ1
T12 sequence (whole entry): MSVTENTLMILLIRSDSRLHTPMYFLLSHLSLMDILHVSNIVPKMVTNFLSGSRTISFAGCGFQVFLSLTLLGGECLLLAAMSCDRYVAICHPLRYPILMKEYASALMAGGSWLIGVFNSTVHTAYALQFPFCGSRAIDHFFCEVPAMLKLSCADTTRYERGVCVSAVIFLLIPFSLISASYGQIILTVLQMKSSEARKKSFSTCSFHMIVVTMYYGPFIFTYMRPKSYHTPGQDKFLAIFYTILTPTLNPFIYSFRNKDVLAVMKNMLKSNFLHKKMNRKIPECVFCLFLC
Method in brief: as §1

O2AK2 = tested on: T13, O2AK2
T13 sequence (whole entry): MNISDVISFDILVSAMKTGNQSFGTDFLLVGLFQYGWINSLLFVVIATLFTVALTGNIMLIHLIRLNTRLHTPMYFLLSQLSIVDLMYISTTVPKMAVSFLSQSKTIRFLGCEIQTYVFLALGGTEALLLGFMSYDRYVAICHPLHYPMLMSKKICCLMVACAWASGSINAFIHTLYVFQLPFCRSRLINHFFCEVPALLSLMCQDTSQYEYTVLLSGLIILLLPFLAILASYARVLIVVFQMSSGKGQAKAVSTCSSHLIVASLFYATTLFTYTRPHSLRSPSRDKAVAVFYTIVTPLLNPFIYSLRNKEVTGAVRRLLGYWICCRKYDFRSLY
Method in brief: as §1

O2T11 = tested on: T14, O2T11
T14 sequence (whole entry): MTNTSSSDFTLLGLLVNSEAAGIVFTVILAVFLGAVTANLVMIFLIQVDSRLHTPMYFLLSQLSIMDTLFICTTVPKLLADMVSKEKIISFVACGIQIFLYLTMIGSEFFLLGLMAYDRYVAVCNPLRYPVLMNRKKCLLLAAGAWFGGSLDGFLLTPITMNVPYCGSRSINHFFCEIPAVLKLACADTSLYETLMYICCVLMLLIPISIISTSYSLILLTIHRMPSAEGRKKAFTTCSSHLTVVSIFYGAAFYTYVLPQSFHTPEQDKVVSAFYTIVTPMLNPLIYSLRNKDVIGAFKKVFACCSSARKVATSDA
Method in brief: as §1

O2T29 [1] = tested on: T15, O2T29
T15 sequence (whole entry): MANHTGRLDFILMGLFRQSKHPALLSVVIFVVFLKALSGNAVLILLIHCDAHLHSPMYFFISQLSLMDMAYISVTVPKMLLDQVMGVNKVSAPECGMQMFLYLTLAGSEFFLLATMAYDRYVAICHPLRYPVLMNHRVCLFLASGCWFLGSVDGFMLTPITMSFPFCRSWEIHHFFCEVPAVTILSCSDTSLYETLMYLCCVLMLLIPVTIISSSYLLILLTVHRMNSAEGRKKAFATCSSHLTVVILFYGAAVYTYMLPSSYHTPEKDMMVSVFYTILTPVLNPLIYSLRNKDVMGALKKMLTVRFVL
Method in brief: as §1

O2T29 [2] = tested on: T16, O2T29; remark: listed apart in the source
T16 sequence (whole entry): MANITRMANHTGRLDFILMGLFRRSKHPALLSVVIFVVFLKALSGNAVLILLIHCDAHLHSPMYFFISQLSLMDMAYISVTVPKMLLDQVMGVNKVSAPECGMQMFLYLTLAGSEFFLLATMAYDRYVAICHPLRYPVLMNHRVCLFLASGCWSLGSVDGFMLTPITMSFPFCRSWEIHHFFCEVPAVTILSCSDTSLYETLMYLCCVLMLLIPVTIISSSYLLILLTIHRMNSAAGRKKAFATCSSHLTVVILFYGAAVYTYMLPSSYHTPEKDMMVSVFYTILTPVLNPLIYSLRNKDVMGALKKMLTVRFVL
Method in brief: as §1

O2T33 = tested on: T17, O2T33
T17 sequence (whole entry): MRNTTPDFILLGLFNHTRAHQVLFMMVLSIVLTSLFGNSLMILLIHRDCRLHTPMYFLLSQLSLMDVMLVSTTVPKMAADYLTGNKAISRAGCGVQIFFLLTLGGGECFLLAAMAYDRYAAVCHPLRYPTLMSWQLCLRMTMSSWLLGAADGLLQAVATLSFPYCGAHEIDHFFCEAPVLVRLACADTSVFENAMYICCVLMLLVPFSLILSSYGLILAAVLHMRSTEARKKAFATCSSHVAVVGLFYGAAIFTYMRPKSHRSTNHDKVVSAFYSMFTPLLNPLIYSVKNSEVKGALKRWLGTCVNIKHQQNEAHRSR
Method in brief: as §1

O2T34 = tested on: T18, O2T34
T18 sequence (whole entry): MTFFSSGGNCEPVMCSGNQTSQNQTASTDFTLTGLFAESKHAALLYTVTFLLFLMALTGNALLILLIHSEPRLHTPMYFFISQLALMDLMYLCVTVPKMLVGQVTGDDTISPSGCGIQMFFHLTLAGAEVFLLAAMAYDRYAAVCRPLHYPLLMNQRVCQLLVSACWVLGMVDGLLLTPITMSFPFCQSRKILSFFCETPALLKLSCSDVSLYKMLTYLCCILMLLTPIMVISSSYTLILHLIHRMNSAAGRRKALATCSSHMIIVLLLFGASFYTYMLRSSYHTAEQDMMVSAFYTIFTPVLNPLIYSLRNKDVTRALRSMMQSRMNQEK
Method in brief: as §1

O2T35 = tested on: T19, O2T35
T19 sequence (whole entry): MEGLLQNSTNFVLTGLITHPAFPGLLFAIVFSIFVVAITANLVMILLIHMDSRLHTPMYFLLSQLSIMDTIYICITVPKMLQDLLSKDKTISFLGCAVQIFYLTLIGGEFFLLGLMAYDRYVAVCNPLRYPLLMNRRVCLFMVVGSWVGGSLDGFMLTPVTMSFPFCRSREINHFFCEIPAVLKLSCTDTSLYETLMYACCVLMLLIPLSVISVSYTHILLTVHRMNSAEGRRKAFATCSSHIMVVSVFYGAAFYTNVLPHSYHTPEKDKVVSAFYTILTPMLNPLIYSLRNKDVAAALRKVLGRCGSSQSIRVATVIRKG
Method in brief: as §1

O4A15 = tested on: O4A15
Method in brief: as §1

Measured: odorant receptor agonist call

CS
inactive: all assays above

CCCCOC(C)=O
inactive: all assays above

CCC(C)=O
inactive: all assays above
